Experimental data: PubChem BioAssay AID743454 (Peter MacCallum Cancer Centre, 2014)

Screen: 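Search for knock-downs that restore vorinostat killing in resistant colon cancer cells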 (primary screen)
System: human HCT116-VR colon cancer cells, selected for vorinostat resistance
Reagent: siRNA pool against human genes, 40 nM siRNA pool
Duration: vorinostat for 24 h, read-out about 72 h after transfection
Conditions: vorinostat at 2.5 µM final
Measurement: 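Cell viability by CellTiter-Fluor and caspase 3/7 activity by luminescence, each scaled to mock wells per plate, duplicates averaged, then robust z-scored over all plates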
Direction: viability robust z-score: higher = more viable cells than screen typical; caspase robust z-score: higher = more caspase 3/7 activity than screen typical
Call rule: 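Hits are knock-downs in viability class RV1/RV2 or caspase class CA1/CA2, excluding ones that killed cells in the no-drug cell-count arm; hits then retested with single siRNAs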
The whole screen tested about 18,000 reagents; this is an unselected part. 450 of all reagents (2.5%) were called active. 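Single biological run; no consistent viability z cut-off exists, so the class columns, not z-scores, define the calls.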 Entries without a mark were called inactive.

| Target gene | viability hit class | caspase hit class | viability robust z-score | caspase robust z-score |
| --- | --- | --- | --- | --- |
| CA14 (carbonic anhydrase 14) | no change | no change | -0.99 | -0.92 |
| TCEA1 (transcription elongation factor A1) | no change | no change | 0.66 | -0.03 |
| CDK5RAP2 (CDK5 regulatory subunit associated protein 2) | no change | no change | -0.16 | 0.66 |
| RPL18A (ribosomal protein L18a) | no change | no change | -3.92 | -0.9 |
| HIPK2 (homeodomain interacting protein kinase 2) | no change | no change | 0.18 | 1.08 |
| SFXN5 (sideroflexin 5) | no change | no change | -0.46 | 0.4 |
| ACTBL2 (actin beta like 2) | no change | no change | 0.72 | -0.35 |
| ZBTB49 (zinc finger and BTB domain containing 49) | no change | no change | 1.23 | -0.71 |
| DCXR (dicarbonyl and L-xylulose reductase) | no change | no change | -0.64 | 1.07 |
| TATDN3 (TatD DNase domain containing 3) | no change | no change | -0.36 | -0.82 |
| OR7D4 (olfactory receptor family 7 subfamily D member 4) | no change | no change | 0.36 | 0.27 |
| CORO1A (coronin 1A) | no change | no change | 0.14 | -0.92 |
| HELT (helt bHLH transcription factor) | no change | no change | 1.57 | -0.06 |
| HYCC1 (hyccin PI4KA lipid kinase complex subunit 1) | no change | no change | 1.99 | -0.79 |
| TTC4 (tetratricopeptide repeat domain 4) | no change | no change | 1.52 | -0.38 |
| ZFP42 (ZFP42 zinc finger protein) | no change | no change | -0.48 | -0.3 |
| LINC02913 (long independently transcribed non-coding RNA 2913) | no change | no change | 0.57 | -0.39 |
| PARP15 (poly(ADP-ribose) polymerase family member 15) | no change | no change | -0.32 | 4.13 |
| TRIM8 (tripartite motif containing 8) | no change | no change | -2.05 | -0.6 |
| CTNND1 (catenin delta 1) | no change | no change | -0.42 | 0.03 |
| ICA1 (islet cell autoantigen 1) | no change | no change | 0.16 | -0.02 |
| GSTA1 (glutathione S-transferase alpha 1) | no change | no change | -0.14 | 0.86 |
| PTDSS2 (phosphatidylserine synthase 2) | no change | no change | -0.41 | 0.2 |
| HEBP2 (heme binding protein 2) | no change | no change | 1.23 | -0.38 |
| BACC1 (BPTF associated chromatin complex component 1) | no change | no change | 0.54 | 0.42 |
| CFP (complement factor properdin) | no change | no change | -0.57 | 0.44 |
| BTBD7 (BTB domain containing 7) | no change | no change | -0.68 | -1.17 |
| RBM11 (RNA binding motif protein 11) | no change | no change | 0.54 | -0.02 |
| STAT3 (signal transducer and activator of transcription 3) | no change | no change | -0.04 | -0.15 |
| YPEL4 (yippee like 4) | no change | no change | -0.26 | -0.8 |
| ATP1A1 (ATPase Na+/K+ transporting subunit alpha 1) | no change | no change | 0.52 | -0.92 |
| PCDH11X (protocadherin 11 X-linked) | no change | no change | -0.11 | -0.96 |
| PCK1 (phosphoenolpyruvate carboxykinase 1) | no change | no change | -1.09 | -1.07 |
| IL26 (interleukin 26) | no change | no change | 0.6 | -0.64 |
| PEX13 (peroxisomal biogenesis factor 13) | no change | no change | -0.14 | 2.3 |
| MAGI1 | no change | no change | -0.38 | -1.07 |
| EDNRA (endothelin receptor type A) | no change | no change | 1.06 | 0.8 |
| SYT7 (synaptotagmin 7) | no change | no change | -0.32 | -0.86 |
| PHACTR1 (phosphatase and actin regulator 1) | no change | no change | -0.26 | -0.45 |
| ZNF32 (zinc finger protein 32) | no change | no change | -1.47 | 1.26 |
| B3GNT8 | no change | no change | -0.64 | -0.52 |
| LAP3 (leucine aminopeptidase 3) | no change | no change | 0.57 | -0.96 |
| GUCY1B1 (guanylate cyclase 1 soluble subunit beta 1) | no change | no change | -4.43 | 1.17 |
| ANXA10 (annexin A10) | no change | no change | -0.7 | -0.86 |
| BEND4 (BEN domain containing 4) | no change | no change | 0.2 | -0.27 |
| SNIP1 (Smad nuclear interacting protein 1) | no change | no change | -0.62 | 0.53 |
| GAGE7 (G antigen 7) | no change | no change | -0.5 | -0.12 |
| RPUSD3 (RNA pseudouridine synthase D3) | no change | no change | 0.2 | -0.96 |
| CAMK1 (calcium/calmodulin dependent protein kinase I) | RV2 (reduced viability) (active) | no change | -4.25 | 4.25 |
| FXYD2 (FXYD domain containing ion transport regulator 2) | no change | no change | -0.6 | 1.25 |
| FSTL5 (follistatin like 5) | no change | no change | 0.24 | -0.46 |
| BMP8A (bone morphogenetic protein 8a) | no change | no change | 0.07 | 1.4 |
| ADIG (adipogenin) | no change | no change | 1.56 | -0.71 |
| TRIP10 (thyroid hormone receptor interactor 10) | no change | no change | 2.79 | 0.79 |
| ZNF561 (zinc finger protein 561) | no change | no change | -0.24 | 0.7 |
| CTTN (cortactin) | no change | no change | 1.1 | 0 |
| LYPD1 (LY6/PLAUR domain containing 1) | no change | no change | 0.42 | 0.46 |
| ALG6 (ALG6 alpha-1,3-glucosyltransferase) | no change | no change | 1.47 | -0.3 |
| SLC39A14 | no change | no change | -0.01 | -0.8 |
| CCL5 (C-C motif chemokine ligand 5) | no change | no change | 0.39 | -0.25 |
| SPAG11A (sperm associated antigen 11A) | no change | no change | -0.28 | 0.44 |
| NMNAT1 (nicotinamide nucleotide adenylyltransferase 1) | no change | no change | -0.6 | 1.78 |
| PATL1 (PAT1 homolog 1, processing body mRNA decay factor) | no change | no change | -1.16 | 1.59 |
| ECM2 (extracellular matrix protein 2) | no change | no change | -0.26 | -0.45 |
| TMEM47 (transmembrane protein 47) | no change | no change | 0.76 | -0.08 |
| SGTB | no change | no change | 0.68 | -0.68 |
| VILL (villin like) | no change | no change | 0.26 | 0.68 |
| GDF11 (growth differentiation factor 11) | no change | no change | 0.35 | 0.7 |
| PCDHB8 (protocadherin beta 8) | no change | no change | -0.04 | -0.85 |
| SULT1C2 (sulfotransferase family 1C member 2) | no change | no change | -0.8 | -1.25 |
| MCCC1 (methylcrotonyl-CoA carboxylase subunit 1) | no change | no change | -0.4 | -0.86 |
| TSC22D1 (TSC22 domain family member 1) | no change | no change | -0.02 | 1.79 |
| TTC13 (tetratricopeptide repeat domain 13) | no change | no change | -0.06 | 1.04 |
